In publication doi:10.1101/542050:
No constants are given. Whether binding was seen depends on the method and setting. In cells and extracts the contact can be indirect. Some results given as binding are weak or reduced against the parent protein; the word gives no strength.

Sequences of proteins named here, by UniProt entry; tags and fusion partners are left off.
UniProt Q9H0U4: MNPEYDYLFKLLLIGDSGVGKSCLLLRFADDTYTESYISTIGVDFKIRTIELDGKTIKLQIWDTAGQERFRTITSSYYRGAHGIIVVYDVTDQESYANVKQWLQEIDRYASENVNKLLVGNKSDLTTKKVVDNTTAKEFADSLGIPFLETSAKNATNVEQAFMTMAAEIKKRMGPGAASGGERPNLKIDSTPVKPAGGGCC
UniProt Q7Z434: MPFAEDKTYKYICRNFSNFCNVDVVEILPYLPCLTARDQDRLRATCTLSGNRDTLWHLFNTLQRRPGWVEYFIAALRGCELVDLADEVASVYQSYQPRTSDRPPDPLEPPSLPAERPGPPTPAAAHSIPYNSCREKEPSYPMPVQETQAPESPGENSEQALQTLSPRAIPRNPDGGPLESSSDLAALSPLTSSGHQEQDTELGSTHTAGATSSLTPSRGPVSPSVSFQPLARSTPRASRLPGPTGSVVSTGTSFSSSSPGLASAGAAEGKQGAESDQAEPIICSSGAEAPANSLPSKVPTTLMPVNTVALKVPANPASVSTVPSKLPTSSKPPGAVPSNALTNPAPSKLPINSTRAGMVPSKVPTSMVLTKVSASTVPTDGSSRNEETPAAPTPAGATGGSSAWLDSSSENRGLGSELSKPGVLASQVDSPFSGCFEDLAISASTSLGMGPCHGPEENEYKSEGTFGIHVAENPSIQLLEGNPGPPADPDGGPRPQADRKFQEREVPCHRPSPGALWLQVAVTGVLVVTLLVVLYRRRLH

Biological target: HA-RAB1B (UniProt Q9H0U4)
Assay: co-IP

Flag-MAVS (from UniProt Q7Z434 1-540)
binding: binds
